Data: patent US20150359816A1, “STABLE COMPOSITIONS COMPRISING HEPARINOID, ACUTE-ACTING ANESTHETIC, AND BUFFER” (URIGEN PHARMACEUTICALS, INC., priority 2014, published 2015)
Counter-ions that a name gives are not always drawn.

Conditions: 25 mL solution with 333 mg lidocaine hydrochloride

CCN(CC)CC(=O)Nc1c(C)cccc1C [Lidocaine, lidocaine hydrochloride]
precipitation of lidocaine / stability of solution: unstable with precipitation of lidocaine
